Laboratory results reported in paper PMC11129471.
No constants are given. Whether binding was seen depends on the method and setting. In cells and extracts the contact can be indirect. Some results given as binding are weak or reduced against the parent protein; the word gives no strength.

Chains of the proteins cited; added tags and fusions are not shown.
UniProt Q9UKB1: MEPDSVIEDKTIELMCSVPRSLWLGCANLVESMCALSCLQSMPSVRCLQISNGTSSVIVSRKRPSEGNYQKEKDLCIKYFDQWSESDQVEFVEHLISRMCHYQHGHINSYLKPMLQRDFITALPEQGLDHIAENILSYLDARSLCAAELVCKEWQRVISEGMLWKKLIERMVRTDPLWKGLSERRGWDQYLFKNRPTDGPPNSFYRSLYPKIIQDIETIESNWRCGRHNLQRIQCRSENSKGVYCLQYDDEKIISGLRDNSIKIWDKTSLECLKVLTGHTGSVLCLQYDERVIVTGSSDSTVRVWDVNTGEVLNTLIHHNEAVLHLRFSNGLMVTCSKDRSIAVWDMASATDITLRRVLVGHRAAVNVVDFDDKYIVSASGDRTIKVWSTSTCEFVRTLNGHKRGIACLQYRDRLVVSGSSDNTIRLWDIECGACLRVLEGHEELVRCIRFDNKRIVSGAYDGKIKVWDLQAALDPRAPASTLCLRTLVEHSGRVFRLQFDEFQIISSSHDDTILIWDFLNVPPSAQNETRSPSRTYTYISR

Biological target: FBXW11 (UniProt Q9UKB1)
Assay: co-IP; human NPC lysate (25 mM Tris-HCl pH 7.5, 150 mM NaCl, 0.5% NP-40, protease and phosphatase inhibitors); protein agarose beads and primary antibodies; SDS-PAGE and blot

binding: binds
B1: TAK1 (protein, UniProt O43318 1-606)
chain: MSTASAASSSSSSSAGEMIEAPSQVLNFEEIDYKEIEVEEVVGRGAFGVVCKAKWRAKDVAIKQIESESERKAFIVELRQLSRVNHPNIVKLYGACLNPVCLVMEYAEGGSLYNVLHGAEPLPYYTAAHAMSWCLQCSQGVAYLHSMQPKALIHRDLKPPNLLLVAGGTVLKICDFGTACDIQTHMTNNKGSAAWMAPEVFEGSNYSEKCDVFSWGIILWEVITRRKPFDEIGGPAFRIMWAVHNGTRPPLIKNLPKPIESLMTRCWSKDPSQRPSMEEIVKIMTHLMRYFPGADEPLQYPCQYSDEGQSNSATSTGSFMDIASTNTSNKSDTNMEQVPATNDTIKRLESKLLKNQAKQQSESGRLSLGASRGSSVESLPPTSEGKRMSADMSEIEARIAATTAYSKPKRGHRKTASFGNILDVPEIVISGNGQPRRRSIQDLTVTGTEPGQVSSRSSSPSVRMITTSGPTSEKPTRSHPWTPDDSTDTNGSDNSIPMAYLTLDHQLQPLAPCPNSKESMAVFEQHCKMAQEYMKVQTEIALLLQRKQELVAELDQDEKDQQNTSRLVQEHKKLLDENKSLSTYYQQCKKQLEVIRSQQQKRQGTS
